Assay results as given in US20100104614A1, “PROVIDONE COMPOSITIONS FOR WOUND HEALING” (priority 2008, published 2010).

Experiment: Treatment of non-healing skin excision wound after melanoma removal (Example 2)
Assay type: in vivo, human
Settings: dressing changes, topical antibiotics and oral Keflex tablets
Text: A diabetic person with a melanoma on their back had the cancer surgically removed. The resulting excision wound measured approximately 3.0 cm×3.0 cm, and extended into the dermis.
Approximately one tablespoon of povidone powder was applied several times a day. Within one day, the wound began to granulate. After one week of treatment, the wound was completely healed.

CC1=C(C(=O)O)N2C(=O)[C@@H](NC(=O)[C@H](N)c3ccccc3)[C@H]2SC1 [Keflex]
wound healing outcome of prior treatment: without improvement
